The record followed here is article PMC2822766.

Chains of the proteins cited; added tags and fusions are not shown. Residues count along the entry.
UniProt Q01097, residues 27-1482: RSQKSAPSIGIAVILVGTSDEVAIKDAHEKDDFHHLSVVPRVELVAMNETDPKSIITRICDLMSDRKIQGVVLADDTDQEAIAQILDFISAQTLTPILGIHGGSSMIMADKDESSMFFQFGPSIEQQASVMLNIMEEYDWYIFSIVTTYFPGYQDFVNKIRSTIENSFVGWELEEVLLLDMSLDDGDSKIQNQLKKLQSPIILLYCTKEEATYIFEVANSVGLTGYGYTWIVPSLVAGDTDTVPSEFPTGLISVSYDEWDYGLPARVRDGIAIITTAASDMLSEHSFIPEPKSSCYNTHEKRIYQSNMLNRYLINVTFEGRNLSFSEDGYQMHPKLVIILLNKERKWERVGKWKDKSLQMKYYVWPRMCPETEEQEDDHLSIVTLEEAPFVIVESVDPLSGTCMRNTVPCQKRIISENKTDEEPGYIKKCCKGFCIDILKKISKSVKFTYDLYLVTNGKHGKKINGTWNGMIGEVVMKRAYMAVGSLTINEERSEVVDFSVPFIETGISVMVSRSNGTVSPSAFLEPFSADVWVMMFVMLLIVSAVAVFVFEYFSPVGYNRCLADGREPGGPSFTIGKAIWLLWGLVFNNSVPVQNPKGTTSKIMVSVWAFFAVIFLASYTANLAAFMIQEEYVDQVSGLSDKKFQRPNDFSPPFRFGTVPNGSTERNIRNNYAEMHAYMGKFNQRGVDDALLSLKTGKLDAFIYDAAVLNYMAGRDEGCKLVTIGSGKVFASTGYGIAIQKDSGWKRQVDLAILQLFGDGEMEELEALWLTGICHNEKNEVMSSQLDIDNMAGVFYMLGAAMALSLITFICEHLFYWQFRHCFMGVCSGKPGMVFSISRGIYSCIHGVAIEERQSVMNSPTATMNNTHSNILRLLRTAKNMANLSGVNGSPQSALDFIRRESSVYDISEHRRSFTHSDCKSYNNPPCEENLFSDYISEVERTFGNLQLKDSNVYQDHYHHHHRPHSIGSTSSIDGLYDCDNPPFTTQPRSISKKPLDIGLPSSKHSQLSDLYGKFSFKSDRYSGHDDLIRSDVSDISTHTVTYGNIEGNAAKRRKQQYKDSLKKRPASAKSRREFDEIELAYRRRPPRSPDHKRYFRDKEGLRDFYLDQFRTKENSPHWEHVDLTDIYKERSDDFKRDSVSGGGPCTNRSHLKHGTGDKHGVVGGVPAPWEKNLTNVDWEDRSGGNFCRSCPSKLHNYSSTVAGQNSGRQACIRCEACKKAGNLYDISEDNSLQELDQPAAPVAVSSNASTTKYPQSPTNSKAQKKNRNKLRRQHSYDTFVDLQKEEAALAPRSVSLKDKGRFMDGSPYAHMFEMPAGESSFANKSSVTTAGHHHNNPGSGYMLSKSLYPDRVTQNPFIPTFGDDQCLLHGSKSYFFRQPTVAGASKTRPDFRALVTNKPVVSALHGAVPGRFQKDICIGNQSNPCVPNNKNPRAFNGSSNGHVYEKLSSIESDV

The assay deals with T1, DREAM (downstream regulatory element antagonist modulator) (mouse (endogenous in hippocampus)) (UniProt Q9QXT8).
T1 sequence: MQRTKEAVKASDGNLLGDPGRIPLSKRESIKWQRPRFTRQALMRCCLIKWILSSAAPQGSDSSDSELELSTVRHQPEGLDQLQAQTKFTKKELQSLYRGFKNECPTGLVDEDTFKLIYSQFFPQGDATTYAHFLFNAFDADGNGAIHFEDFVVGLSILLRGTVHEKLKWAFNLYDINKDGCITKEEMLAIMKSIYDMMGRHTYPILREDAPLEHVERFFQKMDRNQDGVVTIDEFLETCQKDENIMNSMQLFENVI
Description: co-IP; hippocampal extracts from wild-type mice; Tris pH 7.5 50 mM, NaCl 150 mM, NP40 1%, Na-deoxycholate […]; 5 ug DREAM antibody (or PSD-95 antibody), protein A magnetic beads; absence of Ca2+ corresponds to 2 mM EDTA.

No constants are given. Whether binding was seen depends on the method and setting. In cells and extracts the contact can be indirect. Where a sequence is shown, tags or fusion partners need not be part of it.

With “NMDA receptor subunit NR2A (from UniProt P35436 23-1464)”, the binding result is reported as “no binding”. The entry for “NMDA receptor subunit NR2B (from UniProt Q01097 27-1482)” is “no binding”.
